Reference: PubChem BioAssay AID1259284 (Sanger Institute, 2017)
Here is an unselected part of 794 deposited reagents. 16 of them (2%) count as active. 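Calls concern knock-down without drug only; drug synergy was judged apart, with scores above 0.15 taken as synergy.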 A number with no mark means an inactive call. Not all columns of the deposit are shown. Not stated in the record: the amount of reagent, the time to read-out.

- Aim: 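Kinase genes needed for growth or acting with cancer drugs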 (primary screen)
- Cell system: SW48 human colorectal cancer cells
- Reagents: siRNA pool against human genes
- Challenge: anchor drug BYL719 at 1 µM, cetuximab at 5 µg/ml or trametinib at 10 nM, or DMSO vehicle alone
- Measured: 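Viability scaled to non-targeting control pool, robust z-score from controls, and synergy scores for each drug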
- Direction: robust z-score, no drug: higher = more cells survive knock-down
- Active means: 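a knock-down is essential if viability without drug gives a robust z-score under -3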
- Calls: active = essential without drug; inactive = no change without drug

PRKAB1 (protein kinase AMP-activated non-catalytic subunit beta 1) | robust z-score, no drug: -0.638
MAPK10 (mitogen-activated protein kinase 10) | robust z-score, no drug: 0.426
CDKL5 (cyclin dependent kinase like 5) | robust z-score, no drug: 0.426
COQ8B (coenzyme Q8B) | robust z-score, no drug: 0.426
MAPK4 (mitogen-activated protein kinase 4) | robust z-score, no drug: 0.197
NME6 (NME/NM23 nucleoside diphosphate kinase 6) | robust z-score, no drug: 0.426

Look-ups from the list.
Result of CDKL5 (cyclin dependent kinase like 5) under “robust z-score, no drug”: 0.426
MAPK10 (mitogen-activated protein kinase 10), robust z-score, no drug → 0.426
Under “robust z-score, no drug”, COQ8B (coenzyme Q8B) reads 0.426

The listing continues.
CASP8 (caspase 8) | robust z-score, no drug: 0.426
TRIM27 (tripartite motif containing 27) | robust z-score, no drug: 0.426
NEK4 (NIMA related kinase 4) | robust z-score, no drug: 0.426
DGKA (diacylglycerol kinase alpha) | robust z-score, no drug: -2.3
STK11 (serine/threonine kinase 11) | robust z-score, no drug: 0.426
CDKL1 (cyclin dependent kinase like 1) | robust z-score, no drug: -0.0326
ZC3H11A (zinc finger CCCH-type containing 11A) | robust z-score, no drug: 0.426
CAMKK2 (calcium/calmodulin dependent protein kinase kinase 2) | robust z-score, no drug: 0.426
PRKACB (protein kinase cAMP-activated catalytic subunit beta) | robust z-score, no drug: 0.426
AKAP9 (A-kinase anchoring protein 9) | robust z-score, no drug: -1.52
LCK (LCK proto-oncogene, Src family tyrosine kinase) | robust z-score, no drug: 0.426
MAP2K7 (mitogen-activated protein kinase kinase 7) | robust z-score, no drug: -0.02
PDK3 (pyruvate dehydrogenase kinase 3) | robust z-score, no drug: 0.426
